The text below walks through data of patent publication US20220064276A1.

Protein sequences, listed by entry. Tags and fused reporters are not part of them. Lines headed by an entry give the natural chain unless they say otherwise; changes in a name come on top.
UniProt Q14766: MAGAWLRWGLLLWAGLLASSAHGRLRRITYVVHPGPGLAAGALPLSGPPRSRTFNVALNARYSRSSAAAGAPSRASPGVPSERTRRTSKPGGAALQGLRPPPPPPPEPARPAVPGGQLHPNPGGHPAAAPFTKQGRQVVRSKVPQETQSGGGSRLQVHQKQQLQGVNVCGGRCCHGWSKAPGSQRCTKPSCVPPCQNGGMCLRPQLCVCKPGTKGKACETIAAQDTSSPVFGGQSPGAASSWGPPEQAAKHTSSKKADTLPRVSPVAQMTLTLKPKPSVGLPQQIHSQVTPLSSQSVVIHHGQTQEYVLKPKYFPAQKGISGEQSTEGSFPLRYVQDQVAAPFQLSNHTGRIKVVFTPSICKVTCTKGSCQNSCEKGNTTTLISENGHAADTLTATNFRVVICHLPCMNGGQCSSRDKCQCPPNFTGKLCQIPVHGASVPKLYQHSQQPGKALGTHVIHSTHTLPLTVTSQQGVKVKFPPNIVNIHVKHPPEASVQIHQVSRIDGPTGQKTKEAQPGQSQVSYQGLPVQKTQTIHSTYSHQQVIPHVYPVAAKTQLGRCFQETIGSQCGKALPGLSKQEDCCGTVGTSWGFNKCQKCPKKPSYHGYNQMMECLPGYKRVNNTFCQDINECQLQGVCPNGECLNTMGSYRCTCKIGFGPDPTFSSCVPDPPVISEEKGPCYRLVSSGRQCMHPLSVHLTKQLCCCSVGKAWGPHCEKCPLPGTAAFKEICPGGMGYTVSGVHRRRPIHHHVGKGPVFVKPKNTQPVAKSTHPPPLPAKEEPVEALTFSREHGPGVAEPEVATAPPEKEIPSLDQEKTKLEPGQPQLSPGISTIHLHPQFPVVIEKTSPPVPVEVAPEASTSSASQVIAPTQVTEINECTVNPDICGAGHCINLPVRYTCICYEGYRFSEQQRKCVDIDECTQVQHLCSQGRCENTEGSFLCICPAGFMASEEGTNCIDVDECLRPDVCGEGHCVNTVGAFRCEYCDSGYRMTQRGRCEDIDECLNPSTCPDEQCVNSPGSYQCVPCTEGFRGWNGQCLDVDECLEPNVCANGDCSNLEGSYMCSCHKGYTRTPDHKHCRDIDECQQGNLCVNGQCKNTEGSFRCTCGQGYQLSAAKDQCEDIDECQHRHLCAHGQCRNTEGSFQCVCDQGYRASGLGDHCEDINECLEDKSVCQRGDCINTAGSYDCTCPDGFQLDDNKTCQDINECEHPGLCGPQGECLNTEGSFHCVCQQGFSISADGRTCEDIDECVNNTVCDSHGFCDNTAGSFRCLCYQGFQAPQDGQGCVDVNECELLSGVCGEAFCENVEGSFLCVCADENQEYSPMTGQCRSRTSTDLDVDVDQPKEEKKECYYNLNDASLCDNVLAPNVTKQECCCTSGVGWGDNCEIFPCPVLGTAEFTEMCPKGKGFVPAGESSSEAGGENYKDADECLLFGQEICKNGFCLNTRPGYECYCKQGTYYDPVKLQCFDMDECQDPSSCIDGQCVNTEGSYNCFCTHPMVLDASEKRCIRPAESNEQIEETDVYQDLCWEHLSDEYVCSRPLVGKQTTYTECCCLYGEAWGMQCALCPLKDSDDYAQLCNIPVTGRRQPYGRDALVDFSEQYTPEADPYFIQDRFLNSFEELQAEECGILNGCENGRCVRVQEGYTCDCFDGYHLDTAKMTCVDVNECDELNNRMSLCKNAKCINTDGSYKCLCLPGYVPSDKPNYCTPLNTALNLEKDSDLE
UniProt Q9NS15: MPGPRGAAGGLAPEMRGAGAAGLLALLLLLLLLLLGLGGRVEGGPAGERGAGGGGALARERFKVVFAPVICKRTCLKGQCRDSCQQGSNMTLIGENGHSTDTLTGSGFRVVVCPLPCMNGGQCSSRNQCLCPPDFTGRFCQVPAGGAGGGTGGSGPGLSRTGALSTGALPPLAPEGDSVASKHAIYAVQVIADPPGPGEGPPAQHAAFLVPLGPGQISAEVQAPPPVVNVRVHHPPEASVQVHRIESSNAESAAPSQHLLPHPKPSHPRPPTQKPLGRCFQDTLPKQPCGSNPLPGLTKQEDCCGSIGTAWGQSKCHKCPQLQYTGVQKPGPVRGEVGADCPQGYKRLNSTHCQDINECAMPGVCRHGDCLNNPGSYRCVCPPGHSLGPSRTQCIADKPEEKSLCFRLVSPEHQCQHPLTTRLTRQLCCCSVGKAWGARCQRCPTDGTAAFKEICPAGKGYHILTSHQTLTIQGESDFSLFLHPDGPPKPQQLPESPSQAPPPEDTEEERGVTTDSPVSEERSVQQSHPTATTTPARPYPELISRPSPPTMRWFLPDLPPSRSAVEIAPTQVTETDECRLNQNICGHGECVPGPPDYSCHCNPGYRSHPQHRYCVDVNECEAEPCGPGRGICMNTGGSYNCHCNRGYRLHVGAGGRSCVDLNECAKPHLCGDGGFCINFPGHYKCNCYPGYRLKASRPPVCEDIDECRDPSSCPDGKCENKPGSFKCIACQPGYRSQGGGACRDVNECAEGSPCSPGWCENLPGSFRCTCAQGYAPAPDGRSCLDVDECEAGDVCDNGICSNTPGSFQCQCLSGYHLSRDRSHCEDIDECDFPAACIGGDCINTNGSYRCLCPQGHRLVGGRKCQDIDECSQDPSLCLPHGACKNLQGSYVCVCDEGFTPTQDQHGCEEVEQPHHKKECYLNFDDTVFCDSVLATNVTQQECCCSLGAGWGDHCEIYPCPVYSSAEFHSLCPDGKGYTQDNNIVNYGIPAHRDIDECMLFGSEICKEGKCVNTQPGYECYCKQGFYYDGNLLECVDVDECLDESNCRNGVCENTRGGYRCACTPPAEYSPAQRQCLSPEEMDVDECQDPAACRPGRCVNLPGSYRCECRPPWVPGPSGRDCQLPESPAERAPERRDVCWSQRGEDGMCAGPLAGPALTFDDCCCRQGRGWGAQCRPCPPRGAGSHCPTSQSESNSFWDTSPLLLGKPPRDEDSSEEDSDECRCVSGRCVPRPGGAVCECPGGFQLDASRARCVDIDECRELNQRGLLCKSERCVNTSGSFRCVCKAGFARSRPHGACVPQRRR
UniProt Q8CG19: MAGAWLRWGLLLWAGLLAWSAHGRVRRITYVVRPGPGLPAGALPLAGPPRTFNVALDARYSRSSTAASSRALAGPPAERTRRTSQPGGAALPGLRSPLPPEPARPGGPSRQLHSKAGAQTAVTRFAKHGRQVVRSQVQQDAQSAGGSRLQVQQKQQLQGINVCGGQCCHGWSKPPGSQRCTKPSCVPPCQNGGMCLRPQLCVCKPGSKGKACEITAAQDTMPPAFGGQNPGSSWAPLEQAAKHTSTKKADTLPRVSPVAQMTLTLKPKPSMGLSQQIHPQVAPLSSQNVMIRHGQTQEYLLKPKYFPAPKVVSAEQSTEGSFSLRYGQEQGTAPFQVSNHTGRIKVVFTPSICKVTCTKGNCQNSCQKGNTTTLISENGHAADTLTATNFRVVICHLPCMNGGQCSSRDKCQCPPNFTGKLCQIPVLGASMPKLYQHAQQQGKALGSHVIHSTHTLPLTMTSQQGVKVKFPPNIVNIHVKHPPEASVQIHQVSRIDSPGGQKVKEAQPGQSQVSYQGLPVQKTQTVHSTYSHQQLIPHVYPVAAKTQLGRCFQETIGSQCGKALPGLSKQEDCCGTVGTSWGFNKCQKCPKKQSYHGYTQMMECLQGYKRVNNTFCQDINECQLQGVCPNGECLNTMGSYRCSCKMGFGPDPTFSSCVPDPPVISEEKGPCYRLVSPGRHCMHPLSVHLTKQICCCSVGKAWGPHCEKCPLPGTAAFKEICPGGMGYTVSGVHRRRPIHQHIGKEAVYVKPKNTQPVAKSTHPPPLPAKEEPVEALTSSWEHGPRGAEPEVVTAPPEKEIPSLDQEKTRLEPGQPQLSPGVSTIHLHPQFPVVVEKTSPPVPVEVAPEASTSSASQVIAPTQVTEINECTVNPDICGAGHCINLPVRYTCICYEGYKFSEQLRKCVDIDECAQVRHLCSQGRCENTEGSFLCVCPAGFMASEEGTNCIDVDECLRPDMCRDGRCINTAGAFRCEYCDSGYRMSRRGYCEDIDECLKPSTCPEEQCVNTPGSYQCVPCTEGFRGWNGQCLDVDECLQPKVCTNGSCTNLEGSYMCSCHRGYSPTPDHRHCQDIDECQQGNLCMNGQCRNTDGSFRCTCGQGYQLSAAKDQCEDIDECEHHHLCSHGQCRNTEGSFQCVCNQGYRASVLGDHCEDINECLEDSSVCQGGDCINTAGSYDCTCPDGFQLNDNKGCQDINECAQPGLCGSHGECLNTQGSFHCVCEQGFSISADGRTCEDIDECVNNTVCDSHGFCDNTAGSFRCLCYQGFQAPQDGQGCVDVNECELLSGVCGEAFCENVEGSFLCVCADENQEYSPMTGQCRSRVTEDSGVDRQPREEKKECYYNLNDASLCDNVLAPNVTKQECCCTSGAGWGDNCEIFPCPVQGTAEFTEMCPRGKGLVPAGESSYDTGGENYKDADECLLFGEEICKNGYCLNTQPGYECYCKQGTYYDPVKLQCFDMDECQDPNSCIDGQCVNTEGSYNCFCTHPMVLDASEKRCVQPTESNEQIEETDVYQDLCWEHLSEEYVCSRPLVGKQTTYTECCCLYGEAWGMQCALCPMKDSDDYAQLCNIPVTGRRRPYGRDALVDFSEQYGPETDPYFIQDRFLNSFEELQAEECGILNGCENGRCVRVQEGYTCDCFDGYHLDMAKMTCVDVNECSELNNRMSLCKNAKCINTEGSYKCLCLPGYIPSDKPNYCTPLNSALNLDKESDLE
UniProt Q14392: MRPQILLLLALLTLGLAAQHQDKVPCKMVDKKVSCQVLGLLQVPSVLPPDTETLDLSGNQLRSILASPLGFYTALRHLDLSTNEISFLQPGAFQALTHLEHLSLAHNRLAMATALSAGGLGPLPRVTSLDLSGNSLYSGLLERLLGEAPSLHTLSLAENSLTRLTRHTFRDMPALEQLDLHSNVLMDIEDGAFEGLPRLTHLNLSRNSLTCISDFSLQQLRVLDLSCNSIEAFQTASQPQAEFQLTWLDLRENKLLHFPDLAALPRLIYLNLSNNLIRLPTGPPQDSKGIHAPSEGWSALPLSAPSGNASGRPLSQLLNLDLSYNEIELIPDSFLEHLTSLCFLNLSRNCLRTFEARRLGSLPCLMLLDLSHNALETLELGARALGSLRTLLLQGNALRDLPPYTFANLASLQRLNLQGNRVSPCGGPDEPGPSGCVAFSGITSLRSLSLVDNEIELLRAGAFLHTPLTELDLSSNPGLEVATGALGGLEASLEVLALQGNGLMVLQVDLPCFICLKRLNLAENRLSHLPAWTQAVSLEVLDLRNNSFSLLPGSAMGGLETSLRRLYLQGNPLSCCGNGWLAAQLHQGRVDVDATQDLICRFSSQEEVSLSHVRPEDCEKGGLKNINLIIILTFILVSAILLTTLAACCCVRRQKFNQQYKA
UniProt Q86YC3: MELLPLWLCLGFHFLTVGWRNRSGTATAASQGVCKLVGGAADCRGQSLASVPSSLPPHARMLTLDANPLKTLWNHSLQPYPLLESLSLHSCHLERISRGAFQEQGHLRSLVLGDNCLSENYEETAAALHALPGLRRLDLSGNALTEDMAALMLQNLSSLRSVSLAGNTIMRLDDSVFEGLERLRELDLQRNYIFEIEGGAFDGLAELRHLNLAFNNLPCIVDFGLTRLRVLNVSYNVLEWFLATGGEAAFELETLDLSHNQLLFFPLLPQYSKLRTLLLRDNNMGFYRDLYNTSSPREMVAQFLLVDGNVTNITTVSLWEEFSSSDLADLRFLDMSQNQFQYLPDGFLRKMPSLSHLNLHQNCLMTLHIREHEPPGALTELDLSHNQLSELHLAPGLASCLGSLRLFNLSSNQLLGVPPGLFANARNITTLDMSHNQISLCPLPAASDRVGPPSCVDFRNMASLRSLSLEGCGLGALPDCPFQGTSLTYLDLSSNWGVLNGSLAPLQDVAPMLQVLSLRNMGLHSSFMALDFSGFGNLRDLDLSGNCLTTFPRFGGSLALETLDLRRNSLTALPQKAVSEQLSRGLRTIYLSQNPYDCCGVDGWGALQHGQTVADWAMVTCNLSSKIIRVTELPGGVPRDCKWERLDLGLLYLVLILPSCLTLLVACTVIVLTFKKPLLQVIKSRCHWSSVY

For experiment [1], the target named is human LTBP1-proTGFβ1 complex (human) (UniProt Q14766). Nature of the experiment: Octet (bio-layer interferometry), response at 200 nM antigen; 0.1 nm cutoff designates meaningful binding.
Experiment [2] shares this target. Nature of the experiment: Octet BLI (FIG. 11). Background: BLI is a label-free optical method that tracks binding on a fibre tip over time.
In experiment [3] the target is human LTBP3-proTGFβ1 complex (human) (UniProt Q9NS15). Nature of the experiment: Octet BLI (FIG. 11).
Experiment [4] shares this target. Nature of the experiment: SPR Biacore 8K (FIG. 23).
Experiment [5] addresses human LTBP1-proTGFβ1 complex (human) (UniProt Q14766). Nature of the experiment: ELISA (FIG. 7A). (In an ELISA, binding on a coated surface is turned into a signal by an enzyme label.)
The target is the same in experiment [6]. Nature of the experiment: FIG. 2B binding assay.
Experiment [7] concerns the target mouse LTBP1-proTGFβ1 complex (mouse) (UniProt Q8CG19). Nature of the experiment: FIG. 2B binding assay.
In experiment [8] the target is human LTBP1-proTGFβ1 complex (human) (UniProt Q14766). Nature of the experiment: ELISA, biotinylated antigen on NeutrAvidin.
For experiment [9] the target is unchanged. Nature of the experiment: ELISA (FIG. 9).
Experiment [10] addresses human LTBP3-proTGFβ1 complex (human) (UniProt Q9NS15). Nature of the experiment: ELISA (FIG. 9).
Experiment [11] concerns the target human LTBP1-proTGFβ1 complex (human) (UniProt Q14766). Nature of the experiment: ELISA vs. recombinant proTGFβ1 protein complexes, relative binding (RLU).
Experiment [12] deals with human LTBP3-proTGFβ1 complex (human) (UniProt Q9NS15). Described as above.
Experiment [13] addresses human LTBP1-proTGFβ1 complex (human) (UniProt Q14766). Nature of the experiment: ELISA on immobilised antigen (Example 4), RLU, mean ± SD.
The target of experiment [14] is human LTBP3-proTGFβ1 complex (human) (UniProt Q9NS15). The description is as above.
The target of experiment [15] is mouse LTBP1-proTGFβ1 complex (mouse) (UniProt Q8CG19). The experiment is described as above.
Experiment [16] addresses human GARP-proTGFβ1 complex (human) (UniProt Q14392). Nature of the experiment: Octet (bio-layer interferometry), response at 200 nM antigen; 0.1 nm cutoff designates meaningful binding.
Experiment [17] deals with human LTBP1-proTGFβ1 complex (human) (UniProt Q14766). Nature of the experiment: Octet, antibody immobilized.
For experiment [18], the target named is human LRRC33-proTGFβ1 complex (human) (UniProt Q86YC3). Nature of the experiment: SPR (Biacore 8K), biotinylated antigen captured, Fab as analyte (Example 9); concentrations not shown on the sheet. A general note: In SPR one partner is held on a chip, and binding of the other changes the refractive index at the surface.
In experiment [19] the target is human LTBP1-proTGFβ1 complex (human) (UniProt Q14766). The description is as above.
The target in experiment [20] is human LTBP3-proTGFβ1 complex (human) (UniProt Q9NS15). The description is as above.
Experiment [21] deals with human LTBP1-proTGFβ1 complex (human) (UniProt Q14766). Nature of the experiment: SPR Biacore 8K (FIG. 24).
For experiment [22], the target named is human LTBP3-proTGFβ1 complex (human) (UniProt Q9NS15). Nature of the experiment: SPR Biacore 8K (FIG. 24).

Numbering of substitutions follows the chain as printed. These are yes or no findings as the source states them, for the method shown. Some entries that bind do so weakly or less than the wild type.

B1: SR-AB13 (antibody, IgG1, V domains shown)
VH: QLQLQESGPGLVKPSETLSLTCTVSGGSISSSSYYWGWIRQPPGKGLEWIGSISYSGSTYYNPSLKSRVTISVDTSKNQFSLKLSSVTAADTAVYYCARDPSYDSIAGMDVWGQGTTVTVSS
VL: DIQLTQSPSSLSASVGDRVTITCRASQSISSYLNWYQQKPGKAPKLLIYAASNLQSGVPSRFSGSGSGTDFTLTISSLQPEDFATYYCQQSFDFPFTFGGGTKVEIK
Take B1: the binding entry in experiment [1], in [2] and in experiment [3] was “binds” throughout.

B2: SR-AB63-HuFab (Fab, V domains shown)
VH: B1 VH with S30R, G57A, S58T, R99G, D110Q
VL: B1 VL with F94W, F96L
As for B2, the binding entry in [4] was “binds”.

B3: SR-AB64 (antibody, IgG1, V domains shown)
VH: B1 VH with S30R, G57A, S58T, R99G, D110Q
VL: B1 VL with L4M, S31Y, A50S, N53S, L54R, S91G, F96L
Consider B3, for which the binding entry in experiment [1] is recorded as “binds”.

B4: SR-AB62 (antibody, IgG1, V domains shown)
VH: B1 VH with V12A, S30R, G57A, S58T, R99S, I106A
VL: B1 VL with L4M, Q27K, S28V, A50Y, N53S, F92N, F94W
B4: in experiment [1], the binding entry is reported as “binds”.

B5: SR-AB2 (antibody, V domains shown)
VH: QVQLVQSGAEVKKPGASVKVSCKASGYTFTSYGISWVRQAPGQGLEWMGWISAYNGNTNYAQKLQGRVTMTTDTSTSTAYMELRSLRSDDTAVYYCARAPLGNFDSWGQGTMVTVSS
VL: NFMLTQPHSVSESPGKTVTISCTRSSGSIASNYVQWYQQRPGSSPTTVIYEDNQRPSGVPDRFSGSIDSSSNSASLTISGLKTEDEADYYCQSYDSSNHPVVFGGGTKLTVL
Take B5: the binding entry in [5], in experiment [2], in experiment [6], in [7], in experiment [8] and in experiment [9] was “binds” throughout. The binding entry in [10], in experiment [11], in experiment [12], in experiment [13], in experiment [14] and in experiment [15] was “binds” in each case.

B6: SR-AB39 (antibody, IgG1, V domains shown)
VH: QVQLVESGGGVVQPGRSLRLSCAASGFTFRSYVMHWVRQAPGKGLEWVAVISHEGSLKYYADSVKGRFTISRDNSKNTLYLQMNSLRAEDTAVYYCAVPRIAARRGGFGYWGQGTLVTVSS
VL: B5 VL with S28L, A30D, S31D, N53A, S96H, S97D, N98E, H99Q, P100G
In the case of B6, the binding result in experiment [16] and in experiment [1] was “binds” each time.

B7: SR-AB42 (antibody, IgG1, V domains shown)
VH: B6 VH with V98R
VL: B5 VL with S28N, A30D, S31N, S96Y, S97D, N98T, H99Q, P100G
On to B7, for which the binding entry in experiment [1] is “binds”.

B8: SR-AB40 (antibody, IgG1, V domains shown)
VH: B6 VH with V98R
VL: B5 VL with S28N, A30D, S31N, S96Y, H99Q, P100G
Turning to B8, the binding entry in experiment [1] is given as “binds”.

B9: SR-AB41 (antibody, IgG1, V domains shown)
VH: B6 VH with V98R
VL: B5 VL with S28N, A30D, S31N, S96Y, S97D, H99Q, P100A
On to B9, for which, in experiment [1], the binding entry is “binds”.

B10: SR-AB31 (antibody, IgG1, V domains shown)
VH: B6 VH
VL: B5 VL with S28N, A30D, S31N, S96F, S97N, H99Q, P100G
With B10, the binding result in experiment [1] is “binds”.

B11: SR-AB37 (antibody, IgG1, V domains shown)
VH: B6 VH
VL: B5 VL with S28L, A30D, S31D, S97D, N98L, H99Q, P100R
On to B11, for which the binding result in [16] and in experiment [1] was “binds” in each case.

B12: SR-AB10 (antibody, IgG1, V domains shown)
VH: QLQLQESGGGVVQPGRSLRLSCAASGFTFNNYPIHWVRQAPGKGLEWVAVMSYDGINKYYADSVKGRFTISRDNSKNTLYLQMNSLRAEDTAVYYCARPRIAARRGGFDYWGQGTLVTVSS
VL: B5 VL with S28N, A30D, S31N, S97D, H99Q, P100G
Turning to B12, the binding result in [1] and in experiment [2] was “binds” each time.

B13: SR-AB45 (antibody, IgG1, V domains shown)
VH: B6 VH with V98R
VL: B5 VL with S28A, A30D, S31D, N53F, S96D, S97D, N98L, H99Q, P100G
Turning to B13, the binding entry in experiment [16] and in [1] was “binds” throughout.

B14: SR-AB22 (antibody, IgG1, V domains shown)
VH: B6 VH
VL: B5 VL with S28N, A30D, S31N, S97D, H99Q, P100G
As for B14, the binding result in experiment [16], in [1] and in experiment [17] was “binds” each time.

B15: SR-AB44 (antibody, IgG1, V domains shown)
VH: B6 VH with V98R
VL: B5 VL with S26H, S28N, A30D, S31D, Q54V, S97D, H99Q, P100L
On to B15, for which the binding entry in experiment [16] and in experiment [1] was “binds” each time.

B16: SR-AB34 (antibody, IgG1, V domains shown)
VH: B6 VH
VL: B5 VL with S28N, A30D, S31N, S96Y, S97D, N98A, H99Q, P100G
Turning to B16, the binding entry in [16] and in [1] was “binds” throughout.

B17: SR-AB23 (antibody, IgG1, V domains shown)
VH: B6 VH with V98R
VL: B5 VL with S28N, A30D, S31N, S97D, H99Q, P100G
In the case of B17, the binding result in experiment [1] and in [17] was “binds” each time.

B18: SR-AB42-HuFab (Fab, V domains shown)
VH: B6 VH with V98R
VL: B5 VL with S28N, A30D, S31N, S96Y, S97D, N98T, H99Q, P100G
Consider B18, for which the binding result in [18], in [19], in experiment [20], in [21] and in [22] was “binds” in each case.

B19: SR-AB43 (antibody, IgG1, V domains shown)
VH: B6 VH with V98R
VL: B5 VL with S28N, A30D, S31Y, Q54V, S97D, H99Q, P100R
Turning to B19, the binding entry in [1] was “binds”.
